Some peptides are written in HELM: one residue between dots, names in brackets for other building blocks, links after the first $.
Test: solid-phase peptide synthesis
Settings: whole synthesis

Substance	final HPLC purity [%]	isolated yield [%]
AcD-Nal-D-pClPhe-D-Pal-Ser-Tyr-D-HCit-Npg-IprLys-Pro-D-Ala-NH2	95.7	17
PEPTIDE1{[ac].[D-Nal].[D-pClPhe].[D-Pal].S.[NicLys].[D-NicLys].[Npg].[IprLys].P.[dA].[am]}$$$$V2.0	98.3	31
PEPTIDE1{[ac].[dNal].[dpClPhe].[dPal].S.Y.[dCit].[Npg].R.P.[dA].[am]}$$$$V2.0	97.0	9
PEPTIDE1{[ac].[dNal].[dpClPhe].[dPal].S.Y.[dCit].[Npg].[IprLys].P.[dA].[am]}$$$$V2.0	96.4	29
PEPTIDE1{[pE].H.W.S.Y.G.[Npg].R.P.G.[am]}$$$$V2.0	97.2	24
PEPTIDE1{[pE].H.W.S.Y.G.[Npg].R.P.[NEt]}$$$$V2.0	95.0	8
PEPTIDE1{[pE].H.W.S.Y.[dA].[Npg].R.P.G.[am]}$$$$V2.0	95.2	27
PEPTIDE1{[pE].H.W.S.Y.[dA].[Npg].R.P.[NEt]}$$$$V2.0	96.9	7
PEPTIDE1{[pE].H.W.S.Y.[dF].[Npg].R.P.G.[am]}$$$$V2.0	96.8	16
PEPTIDE1{[pE].H.W.S.Y.[dF].[Npg].R.P.[NEt]}$$$$V2.0	96.9	4
PEPTIDE1{[pE].H.W.S.Y.[dL].[Npg].R.P.G.[am]}$$$$V2.0	95.7	36
PEPTIDE1{[pE].H.W.S.Y.[dL].[Npg].R.P.[NEt]}$$$$V2.0	95.3	20
PEPTIDE1{[pE].H.W.S.Y.[dNal].[Npg].R.P.G.[am]}$$$$V2.0	95.6	50
PEPTIDE1{[pE].H.W.S.Y.[dNal].[Npg].R.P.[NEt]}$$$$V2.0	97.4	22
PEPTIDE1{[pE].H.W.S.Y.[dNpg].[Npg].R.P.G.[am]}$$$$V2.0	97.8	4
PEPTIDE1{[pE].H.W.S.Y.[dNpg].[Npg].R.P.[NEt]}$$$$V2.0	96.2	4
PEPTIDE1{[pE].H.W.S.Y.[dW].[Npg].R.P.G.[am]}$$$$V2.0	97.1	7
PEPTIDE1{[pE].H.W.S.Y.[dW].[Npg].R.P.[NEt]}$$$$V2.0	98.4	5
pGlu-His-1Nal-Ser-Tyr-D-Leu-Npg-Arg-Pro-NEt	98.5	7
pGlu-His-2Nal-Ser-Tyr-D-Leu-Npg-Arg-Pro-NEt	98.0	7
pGlu-His-Bal-Ser-Tyr-D-Leu-Npg-Arg-Pro-NEt	97.4	16
pGlu-His-Trp-Ser-Tyr-D-4Pal-Npg-Arg-Pro-Gly-NH2	98.4	–
pGlu-His-Trp-Ser-Tyr-D-Ala-Ada-Arg-Pro-NEt	97.4	24
pGlu-His-Trp-Ser-Tyr-D-HPhe-Npg-Arg-Pro-Gly-NH2	97.5	36
pGlu-His-Trp-Ser-Tyr-D-Leu-Ada-Arg-Pro-NEt	97.3	15
pGlu-His-Trp-Ser-Tyr-D-Leu-MeNpg-Arg-Pro-NEt	95.0	17
pGlu-His-Trp-Ser-Tyr-D-Pal-Npg-Arg-Pro-Gly-NH2	98.6	29
pGlu-His-Trp-Ser-Tyr-D-Phe-Ada-Arg-Pro-NEt	97.8	14
pGlu-His-Trp-Ser-Tyr-D-Trp-Ada-Arg-Pro-Gly-NH2	95.0	11

From US6586402B1 (Laboratoire Theramex, priority 1997, dated 2003)
